Experimental data: the supplement of paper PMC6411743
± gives the standard deviation of the averaged measurements. The entries are a selection whose mix differs from that of the whole data set.

Sequences of proteins named here, by UniProt entry; tags and fusion partners are left off. A change or cut given only in a name is not applied to a line headed by its entry.
UniProt Q9H4L5: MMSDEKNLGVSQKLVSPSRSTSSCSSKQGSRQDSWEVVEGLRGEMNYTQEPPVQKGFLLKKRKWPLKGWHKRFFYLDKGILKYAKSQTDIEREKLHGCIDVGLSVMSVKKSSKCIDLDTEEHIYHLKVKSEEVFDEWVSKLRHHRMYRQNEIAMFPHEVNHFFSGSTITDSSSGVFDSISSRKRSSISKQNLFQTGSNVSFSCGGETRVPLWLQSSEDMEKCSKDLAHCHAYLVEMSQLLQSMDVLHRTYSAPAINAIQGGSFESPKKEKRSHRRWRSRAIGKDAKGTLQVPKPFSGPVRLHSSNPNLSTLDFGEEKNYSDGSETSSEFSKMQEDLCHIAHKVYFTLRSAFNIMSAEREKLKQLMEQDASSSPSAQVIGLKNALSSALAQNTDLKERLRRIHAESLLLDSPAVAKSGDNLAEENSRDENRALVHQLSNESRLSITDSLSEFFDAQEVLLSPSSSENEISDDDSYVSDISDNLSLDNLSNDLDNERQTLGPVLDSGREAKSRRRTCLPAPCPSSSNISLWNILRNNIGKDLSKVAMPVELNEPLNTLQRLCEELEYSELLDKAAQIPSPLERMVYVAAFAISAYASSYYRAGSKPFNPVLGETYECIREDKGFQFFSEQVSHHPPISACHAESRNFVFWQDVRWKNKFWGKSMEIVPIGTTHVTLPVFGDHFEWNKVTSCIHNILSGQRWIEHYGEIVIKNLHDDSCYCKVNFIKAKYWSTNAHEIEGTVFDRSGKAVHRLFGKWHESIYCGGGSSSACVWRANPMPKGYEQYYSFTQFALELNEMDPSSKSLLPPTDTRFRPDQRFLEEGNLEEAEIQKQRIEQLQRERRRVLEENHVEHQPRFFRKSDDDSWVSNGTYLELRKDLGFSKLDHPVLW
UniProt Q9HD20: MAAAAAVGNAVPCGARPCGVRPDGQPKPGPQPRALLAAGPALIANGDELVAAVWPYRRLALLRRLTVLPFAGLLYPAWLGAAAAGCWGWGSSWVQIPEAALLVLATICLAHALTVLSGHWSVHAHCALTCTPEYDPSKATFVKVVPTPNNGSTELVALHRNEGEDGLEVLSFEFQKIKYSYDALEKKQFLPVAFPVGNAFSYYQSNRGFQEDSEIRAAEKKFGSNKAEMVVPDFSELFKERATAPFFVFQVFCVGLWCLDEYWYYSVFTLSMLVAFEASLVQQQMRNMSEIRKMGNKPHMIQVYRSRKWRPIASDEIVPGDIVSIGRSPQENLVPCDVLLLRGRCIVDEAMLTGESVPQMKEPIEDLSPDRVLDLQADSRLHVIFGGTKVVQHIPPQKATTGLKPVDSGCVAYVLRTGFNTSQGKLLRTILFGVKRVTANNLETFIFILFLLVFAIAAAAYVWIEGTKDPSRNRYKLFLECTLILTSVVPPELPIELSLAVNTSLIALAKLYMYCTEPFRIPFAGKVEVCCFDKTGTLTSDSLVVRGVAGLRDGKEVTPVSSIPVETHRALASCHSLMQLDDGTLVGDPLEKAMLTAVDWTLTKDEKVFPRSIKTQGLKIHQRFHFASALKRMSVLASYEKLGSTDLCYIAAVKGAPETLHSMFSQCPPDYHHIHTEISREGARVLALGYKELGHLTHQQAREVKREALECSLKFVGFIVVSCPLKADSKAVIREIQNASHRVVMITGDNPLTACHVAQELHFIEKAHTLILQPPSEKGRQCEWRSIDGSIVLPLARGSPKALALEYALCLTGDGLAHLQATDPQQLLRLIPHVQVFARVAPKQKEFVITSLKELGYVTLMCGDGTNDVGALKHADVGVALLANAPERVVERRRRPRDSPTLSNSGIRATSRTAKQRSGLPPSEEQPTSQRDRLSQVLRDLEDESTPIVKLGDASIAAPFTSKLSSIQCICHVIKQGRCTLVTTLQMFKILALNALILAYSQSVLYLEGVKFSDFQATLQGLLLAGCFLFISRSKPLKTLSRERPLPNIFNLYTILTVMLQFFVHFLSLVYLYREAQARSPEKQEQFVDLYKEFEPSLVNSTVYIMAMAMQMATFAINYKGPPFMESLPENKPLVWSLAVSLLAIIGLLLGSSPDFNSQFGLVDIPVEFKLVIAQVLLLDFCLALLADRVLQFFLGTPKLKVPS
UniProt Q9H3K2: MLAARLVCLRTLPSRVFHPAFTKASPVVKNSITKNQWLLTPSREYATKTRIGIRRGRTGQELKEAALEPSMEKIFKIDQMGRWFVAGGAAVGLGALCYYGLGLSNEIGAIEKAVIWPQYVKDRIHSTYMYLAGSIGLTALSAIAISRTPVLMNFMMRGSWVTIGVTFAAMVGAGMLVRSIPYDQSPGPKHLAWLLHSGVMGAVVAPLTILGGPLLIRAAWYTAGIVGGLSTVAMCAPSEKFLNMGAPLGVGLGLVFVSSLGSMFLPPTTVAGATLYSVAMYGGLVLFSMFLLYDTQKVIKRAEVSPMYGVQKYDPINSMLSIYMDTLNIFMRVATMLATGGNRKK
UniProt Q9H9B1: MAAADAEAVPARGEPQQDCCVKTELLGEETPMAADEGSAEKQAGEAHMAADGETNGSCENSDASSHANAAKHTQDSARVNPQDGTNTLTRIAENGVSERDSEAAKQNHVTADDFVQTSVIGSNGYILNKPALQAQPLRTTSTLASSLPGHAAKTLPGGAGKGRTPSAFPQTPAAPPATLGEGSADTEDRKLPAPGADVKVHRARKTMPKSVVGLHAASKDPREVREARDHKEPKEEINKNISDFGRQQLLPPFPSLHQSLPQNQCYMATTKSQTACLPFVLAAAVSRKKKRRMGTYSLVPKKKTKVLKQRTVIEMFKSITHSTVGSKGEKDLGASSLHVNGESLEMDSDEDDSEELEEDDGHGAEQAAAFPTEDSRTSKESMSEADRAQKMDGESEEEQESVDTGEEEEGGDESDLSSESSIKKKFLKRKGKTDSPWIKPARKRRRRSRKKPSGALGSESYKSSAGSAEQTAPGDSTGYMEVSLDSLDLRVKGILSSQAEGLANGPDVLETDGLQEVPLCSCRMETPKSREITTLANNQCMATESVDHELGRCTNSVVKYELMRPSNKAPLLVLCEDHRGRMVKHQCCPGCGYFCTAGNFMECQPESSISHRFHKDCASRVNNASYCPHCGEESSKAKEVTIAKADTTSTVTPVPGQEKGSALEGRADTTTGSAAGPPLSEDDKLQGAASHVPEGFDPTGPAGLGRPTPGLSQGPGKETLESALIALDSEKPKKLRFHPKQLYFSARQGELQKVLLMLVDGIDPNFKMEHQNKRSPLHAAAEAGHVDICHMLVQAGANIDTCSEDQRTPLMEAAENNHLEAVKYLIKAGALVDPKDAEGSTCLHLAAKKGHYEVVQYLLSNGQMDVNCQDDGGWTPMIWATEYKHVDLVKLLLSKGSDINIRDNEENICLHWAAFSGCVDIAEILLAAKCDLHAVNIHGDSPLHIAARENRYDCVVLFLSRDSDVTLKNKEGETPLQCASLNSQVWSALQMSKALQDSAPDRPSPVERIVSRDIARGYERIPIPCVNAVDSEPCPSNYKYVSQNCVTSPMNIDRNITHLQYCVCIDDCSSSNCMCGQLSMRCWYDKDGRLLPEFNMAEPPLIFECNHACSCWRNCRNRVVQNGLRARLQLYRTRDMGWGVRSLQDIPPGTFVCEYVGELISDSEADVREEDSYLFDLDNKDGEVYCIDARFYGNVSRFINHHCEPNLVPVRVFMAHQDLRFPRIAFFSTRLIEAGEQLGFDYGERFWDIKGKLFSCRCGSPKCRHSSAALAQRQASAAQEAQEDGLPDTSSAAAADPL
UniProt Q9BZL1: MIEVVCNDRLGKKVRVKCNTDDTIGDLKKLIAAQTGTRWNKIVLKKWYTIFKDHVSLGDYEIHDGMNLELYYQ
UniProt Q9HD15: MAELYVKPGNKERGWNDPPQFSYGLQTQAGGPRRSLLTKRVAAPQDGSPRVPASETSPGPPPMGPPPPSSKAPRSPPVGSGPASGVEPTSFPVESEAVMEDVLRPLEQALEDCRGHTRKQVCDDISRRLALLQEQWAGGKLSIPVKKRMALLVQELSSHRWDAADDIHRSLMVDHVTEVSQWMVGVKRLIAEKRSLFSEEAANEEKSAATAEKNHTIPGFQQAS
UniProt Q9HBU6: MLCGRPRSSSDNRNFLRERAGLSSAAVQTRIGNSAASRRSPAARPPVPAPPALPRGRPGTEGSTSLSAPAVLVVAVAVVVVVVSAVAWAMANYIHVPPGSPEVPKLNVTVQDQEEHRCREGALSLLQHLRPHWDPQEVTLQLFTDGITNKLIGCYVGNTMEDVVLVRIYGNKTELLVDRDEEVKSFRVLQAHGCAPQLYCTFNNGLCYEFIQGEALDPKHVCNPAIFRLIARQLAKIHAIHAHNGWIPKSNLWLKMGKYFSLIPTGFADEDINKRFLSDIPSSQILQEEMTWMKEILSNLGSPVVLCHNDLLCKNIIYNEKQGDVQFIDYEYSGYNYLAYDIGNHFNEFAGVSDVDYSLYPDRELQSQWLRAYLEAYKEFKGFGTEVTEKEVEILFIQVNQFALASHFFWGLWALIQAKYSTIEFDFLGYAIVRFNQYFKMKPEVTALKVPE
UniProt Q9H7L9: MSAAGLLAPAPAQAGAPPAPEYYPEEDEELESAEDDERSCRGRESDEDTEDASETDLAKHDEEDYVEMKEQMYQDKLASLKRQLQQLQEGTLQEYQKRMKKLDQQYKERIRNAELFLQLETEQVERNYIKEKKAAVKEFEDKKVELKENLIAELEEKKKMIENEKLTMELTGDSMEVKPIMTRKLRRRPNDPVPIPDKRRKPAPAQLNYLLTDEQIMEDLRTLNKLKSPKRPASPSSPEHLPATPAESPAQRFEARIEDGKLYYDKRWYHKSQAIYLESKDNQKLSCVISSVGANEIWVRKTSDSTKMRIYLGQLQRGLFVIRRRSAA
UniProt Q9H1I8: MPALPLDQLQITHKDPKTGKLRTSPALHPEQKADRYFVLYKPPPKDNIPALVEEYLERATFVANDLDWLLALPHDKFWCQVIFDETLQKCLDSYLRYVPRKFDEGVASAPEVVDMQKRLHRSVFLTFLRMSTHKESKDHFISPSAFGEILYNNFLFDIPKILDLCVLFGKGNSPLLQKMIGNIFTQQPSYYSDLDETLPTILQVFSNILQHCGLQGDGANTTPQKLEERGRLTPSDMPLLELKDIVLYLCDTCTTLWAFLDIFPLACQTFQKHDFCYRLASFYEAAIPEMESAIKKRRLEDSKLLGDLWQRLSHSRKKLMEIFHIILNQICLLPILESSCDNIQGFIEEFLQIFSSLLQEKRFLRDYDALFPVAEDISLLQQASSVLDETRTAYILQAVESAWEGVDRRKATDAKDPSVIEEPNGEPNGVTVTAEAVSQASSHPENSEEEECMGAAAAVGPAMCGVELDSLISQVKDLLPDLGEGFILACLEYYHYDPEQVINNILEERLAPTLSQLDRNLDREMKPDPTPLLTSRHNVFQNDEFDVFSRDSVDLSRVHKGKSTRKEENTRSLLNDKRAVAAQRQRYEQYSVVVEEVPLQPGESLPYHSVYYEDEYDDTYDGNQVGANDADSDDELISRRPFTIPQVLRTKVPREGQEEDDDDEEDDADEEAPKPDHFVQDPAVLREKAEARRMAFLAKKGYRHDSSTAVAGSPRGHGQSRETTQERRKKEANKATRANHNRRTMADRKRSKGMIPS
UniProt Q9HCD5: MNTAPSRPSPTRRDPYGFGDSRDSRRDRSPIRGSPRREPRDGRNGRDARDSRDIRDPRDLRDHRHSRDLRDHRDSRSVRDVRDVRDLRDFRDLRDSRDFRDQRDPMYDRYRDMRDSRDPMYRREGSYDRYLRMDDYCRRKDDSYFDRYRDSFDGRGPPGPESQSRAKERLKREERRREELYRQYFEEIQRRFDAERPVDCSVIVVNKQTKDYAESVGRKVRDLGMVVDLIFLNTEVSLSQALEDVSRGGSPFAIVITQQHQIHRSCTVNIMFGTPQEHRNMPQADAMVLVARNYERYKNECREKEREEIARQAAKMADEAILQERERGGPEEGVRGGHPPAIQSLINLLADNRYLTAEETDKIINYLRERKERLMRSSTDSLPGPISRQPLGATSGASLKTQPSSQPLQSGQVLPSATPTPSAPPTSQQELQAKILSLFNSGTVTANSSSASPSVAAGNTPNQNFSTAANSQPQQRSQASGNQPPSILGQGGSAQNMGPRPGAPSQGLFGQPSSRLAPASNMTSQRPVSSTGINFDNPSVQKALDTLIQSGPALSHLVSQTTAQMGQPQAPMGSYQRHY
UniProt Q9H9Y4: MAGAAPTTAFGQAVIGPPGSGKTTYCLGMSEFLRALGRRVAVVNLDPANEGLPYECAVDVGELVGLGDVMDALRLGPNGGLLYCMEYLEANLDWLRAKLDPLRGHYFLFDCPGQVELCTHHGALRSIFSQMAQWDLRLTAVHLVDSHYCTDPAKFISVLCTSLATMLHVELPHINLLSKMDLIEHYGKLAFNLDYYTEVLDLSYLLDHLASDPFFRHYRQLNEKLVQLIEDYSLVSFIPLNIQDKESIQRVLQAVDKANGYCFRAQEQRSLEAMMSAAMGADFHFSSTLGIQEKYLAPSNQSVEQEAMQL

Compound: Nc1ncnc2c1ncn2[C@@H]1O[C@H](COP(=O)(O)OP(=O)(O)NP(=O)(O)O)[C@@H](O)[C@H]1O [adenylyl imidodiphosphate]
Experiment: NP40-soluble protein abundance relative to vehicle (solubility fold change) (ratio); higher = more soluble protein in presence of AMP-PNP
Outline: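 Values are fold changes against the detergent-processed vehicle, based on vsn-normalised intensities. Jurkat crude lysate was treated at eight concentrations from 0.1 to 10 mM (10 min at room temperature, then 3 min at 37 °C), solubilised with 0.8% NP40 and benzonase, ultracentrifuged and analysed by TMT-labelled LC-MS/MS over three independent experiments.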

Target	NP40-soluble protein abundance (concentration: 1mM)	NP40-soluble protein abundance (concentration: 2mM)	NP40-soluble protein abundance (concentration: 4mM)	NP40-soluble protein abundance (concentration: 6mM)	NP40-soluble protein abundance (concentration: 8mM)	NP40-soluble protein abundance (concentration: 10mM)
UniProt Q9NP92 and related entries	1.03 ± 0.074	1 ± 0.12	0.998 ± 0.13	0.943 ± 0.17	0.955 ± 0.14	0.968 ± 0.18
UniProt Q9BZV1 and related entries	0.984 ± 0.015	0.986 ± 0.053	0.959 ± 0.021	0.9441 ± 0.0079	0.954 ± 0.018	0.963 ± 0.02
ESF1 (UniProt Q9H501)	1.07 ± 0.035	1.15 ± 0.06	1.1 ± 0.016	1.11 ± 0.02	1.08 ± 0.027	1.12 ± 0.029
UniProt Q9BZF2	1.01 ± 0.035	0.976 ± 0.013	0.9747 ± 0.0057	0.991 ± 0.012	0.993 ± 0.013	0.997 ± 0.018
UniProt Q9NNW7 and related entries	1.01 ± 0.021	1.03 ± 0.024	1.03 ± 0.016	1.028 ± 0.0094	1.01 ± 0.012	1.04 ± 0.044
UniProt Q9H4L5 and related entries	1.02 ± 0.024	1.01 ± 0.041	0.9904 ± 0.0097	0.9706 ± 0.0096	0.96 ± 0.028	0.953 ± 0.016
UniProt Q9C0F1	1.03 ± 0.012	1.03 ± 0.031	1.01 ± 0.047	0.961 ± 0.041	0.948 ± 0.025	0.957 ± 0.033
UniProt Q9HBE1 and related entries	1.03 ± 0.052	1.05 ± 0.025	1.0468 ± 0.001	1.04 ± 0.029	1.03 ± 0.061	1.05 ± 0.032
CHD8 (UniProt Q9HCK8)	1 ± 0.025	0.983 ± 0.036	0.996 ± 0.044	0.957 ± 0.027	0.972 ± 0.029	0.966 ± 0.028
CCDC134 (UniProt Q9H6E4)	1.02 ± 0.049	1.02 ± 0.078	0.994 ± 0.045	1.04 ± 0.068	1.07 ± 0.034	1.04 ± 0.072
UniProt Q9HD20 and related entries	1.05 ± 0.043	1.04 ± 0.058	1.06 ± 0.055	1.01 ± 0.022	1.02 ± 0.013	1.05 ± 0.069
LSG1 (UniProt Q9H089)	0.993 ± 0.019	0.975 ± 0.033	0.987 ± 0.017	0.926 ± 0.03	0.927 ± 0.034	0.924 ± 0.013
GRPEL1 (UniProt Q9HAV7)	0.932 ± 0.033	0.978 ± 0.059	0.9 ± 0.046	0.88936 ± 0.00021	0.87 ± 0.018	0.879 ± 0.037
GHITM (UniProt Q9H3K2)	0.981 ± 0.037	0.937 ± 0.04	0.977 ± 0.01	0.986 ± 0.037	0.989 ± 0.021	0.962 ± 0.037
UniProt Q9H9B1 and related entries	0.997 ± 0.015	1.01 ± 0.024	1 ± 0.014	1.01 ± 0.023	0.981 ± 0.012	1.02 ± 0.027
UniProt Q9H773 and related entries	1.03 ± 0.02	1.01 ± 0.019	1.041 ± 0.0073	1.03 ± 0.015	1.01 ± 0.019	1 ± 0.022
UniProt Q9BZL1	1.03 ± 0.041	1.04 ± 0.03	1.05 ± 0.07	1.01 ± 0.033	1.09 ± 0.044	1.02 ± 0.066
PNN (UniProt Q9H307)	0.979 ± 0.13	0.981 ± 0.12	0.961 ± 0.15	0.969 ± 0.17	0.923 ± 0.15	1.03 ± 0.24
UniProt Q9C037 and related entries	1.02 ± 0.025	0.9725 ± 0.0043	1.02 ± 0.018	0.9721 ± 0.006	0.999 ± 0.035	0.971 ± 0.021
UniProt Q9H6A9 and related entries	1.01 ± 0.016	1.02 ± 0.027	0.98826 ± 0.00019	0.989 ± 0.028	0.9847 ± 0.0089	0.9795 ± 0.0059

Target	NP40-soluble protein abundance (concentration: 1mM)	NP40-soluble protein abundance (concentration: 2mM)	NP40-soluble protein abundance (concentration: 4mM)	NP40-soluble protein abundance (concentration: 6mM)	NP40-soluble protein abundance (concentration: 8mM)	NP40-soluble protein abundance (concentration: 10mM)
ACTR5 (UniProt Q9H9F9)	1.05 ± 0.048	1.07 ± 0.037	1.07 ± 0.043	1.13 ± 0.018	1.14 ± 0.027	1.14 ± 0.024
UniProt Q9GZR5	0.956 ± 0.011	0.967 ± 0.029	0.974 ± 0.025	0.954 ± 0.0036	0.943 ± 0.062	0.91 ± 0.01
UniProt Q9H2V7 and related entries	0.986 ± 0.017	0.988 ± 0.029	0.985 ± 0.013	0.982 ± 0.016	0.997 ± 0.03	0.998 ± 0.052
SRA1 (UniProt Q9HD15)	0.967 ± 0.025	0.967 ± 0.023	0.955 ± 0.042	0.942 ± 0.013	0.938 ± 0.016	0.935 ± 0.027
UniProt Q9GZN8 and related entries	1.01 ± 0.011	0.948 ± 0.03	0.977 ± 0.01	0.991 ± 0.029	0.993 ± 0.015	0.993 ± 0.015
UniProt Q9H3N1	0.997 ± 0.022	1.01 ± 0.023	0.968 ± 0.011	0.953 ± 0.014	0.945 ± 0.028	0.9607 ± 0.0085
UniProt Q9GZT3 and related entries	0.976 ± 0.048	0.961 ± 0.026	0.931 ± 0.04	0.954 ± 0.055	0.963 ± 0.027	0.922 ± 0.039
UniProt Q9H5X1	1 ± 0.019	0.989 ± 0.017	0.956 ± 0.022	0.97 ± 0.029	0.946 ± 0.016	0.959 ± 0.037
HMG20A (UniProt Q9NP66)	0.999 ± 0.083	1.05 ± 0.014	1.03 ± 0.084	1.04 ± 0.026	1.1 ± 0.039	1.09 ± 0.037
C17orf75 (UniProt Q9HAS0)	0.971 ± 0.015	0.924 ± 0.053	1.01 ± 0.044	1.01 ± 0.022	1.02 ± 0.035	1.01 ± 0.064
UniProt Q9H0A8 and related entries	0.988 ± 0.027	0.996 ± 0.014	1.01 ± 0.025	1.03 ± 0.047	1.06 ± 0.03	1.06 ± 0.027
UniProt Q9H2D6-5|Q9H2D6 and related entries	0.981 ± 0.025	1.04 ± 0.046	0.994 ± 0.012	0.9799 ± 0.0089	0.965 ± 0.025	0.9722 ± 0.0043
MSL2 (UniProt Q9HCI7)	1.03 ± 0.12	1.03 ± 0.14	1.01 ± 0.11	1.02 ± 0.033	1.04 ± 0.11	1.08 ± 0.11
ETNK1 (UniProt Q9HBU6)	0.989 ± 0.047	0.907 ± 0.088	0.991 ± 0.047	0.914 ± 0.046	0.9757 ± 0.0013	0.887 ± 0.084
SUDS3 (UniProt Q9H7L9)	0.979 ± 0.022	1.04 ± 0.041	0.949 ± 0.03	0.984 ± 0.02	0.982 ± 0.028	1.01 ± 0.021
UniProt Q9H0W9 and related entries	0.99 ± 0.035	0.972 ± 0.036	0.973 ± 0.029	0.974 ± 0.012	0.949 ± 0.043	0.935 ± 0.037
UniProt Q9GZY4	0.995 ± 0.024	0.939 ± 0.041	1.01 ± 0.022	0.977 ± 0.015	0.9936 ± 0.0057	1.01 ± 0.051
OSGEP (UniProt Q9NPF4)	0.984 ± 0.019	0.916 ± 0.064	0.946 ± 0.032	0.9199 ± 0.0067	0.938 ± 0.012	0.917 ± 0.033
RRAGC (UniProt Q9HB90)	1.01 ± 0.037	1.01 ± 0.024	0.988 ± 0.025	1.03 ± 0.012	0.991 ± 0.018	1.022 ± 0.01
ANAPC1 (UniProt Q9H1A4)	0.977 ± 0.033	0.929 ± 0.091	0.963 ± 0.049	0.924 ± 0.08	0.901 ± 0.098	0.912 ± 0.11

Random excerpt: four records from the list
Target	NP40-soluble protein abundance (concentration: 1mM)	NP40-soluble protein abundance (concentration: 2mM)	NP40-soluble protein abundance (concentration: 4mM)	NP40-soluble protein abundance (concentration: 6mM)	NP40-soluble protein abundance (concentration: 8mM)	NP40-soluble protein abundance (concentration: 10mM)
OSGEP (UniProt Q9NPF4)	0.984 ± 0.019	0.916 ± 0.064	0.946 ± 0.032	0.9199 ± 0.0067	0.938 ± 0.012	0.917 ± 0.033
UniProt Q9H0W9 and related entries	0.99 ± 0.035	0.972 ± 0.036	0.973 ± 0.029	0.974 ± 0.012	0.949 ± 0.043	0.935 ± 0.037
ETNK1 (UniProt Q9HBU6)	0.989 ± 0.047	0.907 ± 0.088	0.991 ± 0.047	0.914 ± 0.046	0.9757 ± 0.0013	0.887 ± 0.084
ANAPC1 (UniProt Q9H1A4)	0.977 ± 0.033	0.929 ± 0.091	0.963 ± 0.049	0.924 ± 0.08	0.901 ± 0.098	0.912 ± 0.11

The list continues.

Target	NP40-soluble protein abundance (concentration: 1mM)	NP40-soluble protein abundance (concentration: 2mM)	NP40-soluble protein abundance (concentration: 4mM)	NP40-soluble protein abundance (concentration: 6mM)	NP40-soluble protein abundance (concentration: 8mM)	NP40-soluble protein abundance (concentration: 10mM)
UBA5 (UniProt Q9GZZ9)	1.014 ± 0.009	1.04 ± 0.043	1.017 ± 0.0028	0.994 ± 0.044	0.973 ± 0.041	0.998 ± 0.037
UniProt Q9HD33 and related entries	1.02 ± 0.097	1.05 ± 0.078	0.987 ± 0.083	1.02 ± 0.11	1.01 ± 0.13	1.04 ± 0.18
NOL11 (UniProt Q9H8H0)	1.03 ± 0.038	0.943 ± 0.049	1.01 ± 0.035	0.992 ± 0.022	1.04 ± 0.016	1.02 ± 0.029
UniProt Q9H173 and related entries	0.983 ± 0.025	1.02 ± 0.056	0.98 ± 0.05	0.983 ± 0.04	0.965 ± 0.032	0.954 ± 0.016
VPS37B (UniProt Q9H9H4)	1.02 ± 0.021	1.07 ± 0.086	1.04 ± 0.018	1.03 ± 0.043	1 ± 0.035	1.05 ± 0.061
NMRAL1 (UniProt Q9HBL8)	1.03 ± 0.042	1.02 ± 0.047	1.01 ± 0.041	1.02 ± 0.015	1.002 ± 0.01	1.01 ± 0.024
UniProt Q9H1I8 and related entries	1.02 ± 0.05	1.06 ± 0.0094	1.04 ± 0.02	1.06 ± 0.067	1.07 ± 0.052	1.06 ± 0.076
UniProt Q9H477 and related entries	0.995 ± 0.035	0.9831 ± 0.0088	1 ± 0.029	0.998 ± 0.022	0.9762 ± 0.0079	0.9765 ± 0.0058
UniProt Q9H8G2	1.03 ± 0.036	1.04 ± 0.043	1.02 ± 0.017	1.05 ± 0.013	1.006 ± 0.0039	1.06 ± 0.045
UniProt Q9H832 and related entries	1.02 ± 0.039	1.05 ± 0.094	1.01 ± 0.051	0.974 ± 0.046	0.979 ± 0.022	0.98 ± 0.053
NCOA5 (UniProt Q9HCD5)	1.09 ± 0.062	1.18 ± 0.039	1.37 ± 0.081	1.73 ± 0.1	1.89 ± 0.14	2.17 ± 0.35
UniProt Q9H6D7	1.007 ± 0.01	1.03 ± 0.016	1 ± 0.029	0.969 ± 0.028	0.9567 ± 0.0092	0.925 ± 0.043
DSN1 (UniProt Q9H410)	0.985 ± 0.033	1.01 ± 0.024	0.976 ± 0.029	0.965 ± 0.037	0.926 ± 0.015	0.942 ± 0.021
GPN2 (UniProt Q9H9Y4)	0.983 ± 0.013	0.963 ± 0.017	1.01 ± 0.037	0.9646 ± 0.0056	0.968 ± 0.028	0.935 ± 0.039
ZNF407 (UniProt Q9C0G0)	0.976 ± 0.035	1 ± 0.045	1 ± 0.056	0.962 ± 0.051	0.961 ± 0.03	0.94 ± 0.025
EXOSC4 (UniProt Q9NPD3)	1.02 ± 0.027	0.998 ± 0.031	1.03 ± 0.042	1.04 ± 0.039	1.09 ± 0.049	1.08 ± 0.06
UniProt Q9BZJ0-2|Q5JY65 and related entries	0.993 ± 0.013	0.999 ± 0.057	1.03 ± 0.05	1.03 ± 0.041	1.04 ± 0.038	1.05 ± 0.095
SCAF1 (UniProt Q9H7N4)	1.06 ± 0.046	1.14 ± 0.055	1.13 ± 0.027	1.18 ± 0.066	1.2 ± 0.049	1.24 ± 0.039
UniProt Q9H3H3-2|Q9H3H3-3	0.962 ± 0.061	0.928 ± 0.017	0.9666 ± 0.0066	0.985 ± 0.053	1 ± 0.033	0.978 ± 0.019
UniProt Q9HBK9 and related entries	1.01 ± 0.024	0.984 ± 0.051	0.983 ± 0.015	0.981 ± 0.054	0.968 ± 0.056	0.982 ± 0.053
